According to US20250346659A1 (ELASMOGEN, published 2025):
Results are given in words; binding and its absence hold for the method and conditions named. Some results given as binding are weak or reduced against the parent protein; the word gives no strength.

Amino acid sequences for entries named in this document (tags omitted). Residues count along the entry.
UniProt P01375, residues 77-233: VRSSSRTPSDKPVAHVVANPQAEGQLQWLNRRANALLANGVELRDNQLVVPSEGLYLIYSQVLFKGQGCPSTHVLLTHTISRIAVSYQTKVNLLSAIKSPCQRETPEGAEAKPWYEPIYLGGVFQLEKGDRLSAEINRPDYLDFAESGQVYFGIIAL

T1: Mouse TNF-alpha (mouse, UniProt P06804 80-235)
T1 construct: also called mouse TNFα
T1 sequence (looked up): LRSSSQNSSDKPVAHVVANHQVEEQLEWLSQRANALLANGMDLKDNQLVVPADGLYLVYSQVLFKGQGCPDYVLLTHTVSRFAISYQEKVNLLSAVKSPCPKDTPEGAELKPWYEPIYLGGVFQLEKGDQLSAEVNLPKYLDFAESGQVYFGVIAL

B1: TNF S17-Quad-X™ (Fc fusion)
chain: ASVNQTPRTATKETGESLTINCVLTDTHAKVFTTSWFRKNPGTTDWERMSIGGRYVESVNKGAKSFSLRIKDLTVADSATYICRAGGYLSQPRVYWDVYGAGTVLTVNGGGGSGGGGRTEPRGPTIKPCPPCKCPAPNLLGGPSVFIFPPKIKDVLMISLSPIVTCVVVDVSEDDPDVQISWFVNNVEVHTAQTQTHREDYNSTLRVVSALPIQHQDWMSGKEFKCKVNNKDLPAPIERTISKPKGSVRAPQVYVLPPPEEEMTKKQVTLTCMVTDFMPEDIYVEWTNNGKTELNYKNTEPVLDSDGSYFMYSKLRVEKKNWVERNSYSCSVVHEGLHNHHTTKSFSRTPGKGGGGSGGGGSGGGGSGGGGSGAHSASVNQTPRTATKETGESLTINCVLTDTHAKVFTTSWFRKNPGTTDWERMSIGGRYVESVNKGAKSFSLRIKDLTVADSATYICRAGGYLSQPRVYWDVYGAGTVLTVN
notes: S17, mouse IgG2a Fc and S17 in one chain; also called S17-Fc-S17; S17-Fc-S17 (Quad-X™)
B2: TNF VNAR DIMER D1-B4 (VNAR)
chain: ARVDQTPQTITKETGESLPINCVLRDSHCATSSTYWYRKKSGSTNEESISKGGRYVETVNSGSKSFSLRINDLTVEDSGTYRCASECQYGLAEYDVYGGGTVVTVNGGGGSGGGGGSGAHSARVDQTPQTITKETGESLTINCVLRDSNCALSSMYWYRKKSGSTNEESISKGGRYVETVNSGSKSFSLRINDLTVEDSGTYRCKVYIPCIDELVYMISGGTSGPIHDVYGGGTVVTVNAAAHHHHHHGAAEQKLISEEDL
B3: B4-D1 (VNAR)
chain: ARVDQTPQTITKETGESLTINCVLRDSNCALSSMYWYRKKSGSTNEESISKGGRYVETVNSGSKSFSLRINDLTVEDSGTYRCKVYIPCIDELVYMISGGTSGPIHDVYGGGTVVTVNGGGGSGGGGGSGAHSARVDQTPQTITKETGESLPINCVLRDSHCATSSTYWYRKKSGSTNEESISKGGRYVETVNSGSKSFSLRINDLTVEDSGTYRCASECQYGLAEYDVYGGGTVVTVNAAAHHHHHHGAAEQKLISEEDL

What was measured:
Mouse TNF-alpha = molecular target: T1, Mouse TNF-alpha; experiment: binding ELISA on mouse TNF-alpha, OD 450
[1] = molecular target: T2, human Tumour Necrosis Factor alpha (human, UniProt P01375 77-233); experiment: binding ELISA on TNFα (Anti-TNF NAR Dimers Binding ELISA, post dialysis), absorbance at 450 nm
T2 construct: Amine-coupled to the chip for BIAcore, biotinylated on streptavidin sensors for Octet, coated at 1 µg/ml for ELISA; also called hTNFα; rhTNFα

Row | Binder | binding (Mouse TNF-alpha) | binding [1]
1 | B1 | binds | 
2 | B2 |  | binds
3 | B3 |  | binds
